Data as given in PubChem BioAssay AID504791 (Drosophila RNAi Screening Center, 2011)

- Aim: 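Factors in Argonaute-based small RNA production and activity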 (primary screen)
- System: Drosophila S2-derived reporter cells
- Reagent: long dsRNA against Drosophila genes, about 150-250 ng dsRNA per well (siRNA assay); about 80-120 ng (miRNA assay)
- Duration: about 5 days (siRNA assay); about 4 days (miRNA assay)
- Challenge: copper sulfate induction of reporters: 25 µM (siRNA assay); 200 mM stated (miRNA assay), 1-2 days before reading
- Measurement: 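Dual luciferase assay: Renilla to firefly signal ratio in each well, scaled to the mean ratio of its plate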
- Reading the numbers: siRNA reporter hit score: higher = 3 marks a strong hit with raised ratio; -3 a strong hit with lowered ratio
- Hit rule: 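First-pass picks had plate-scaled ratios over 1.5 for the siRNA assay, over 1.6 for the miRNA assay, or under 0.6; two distinct dsRNAs had to score alike on retest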
In all, the deposit lists about 23,000 reagents; below is an unselected part of those with a known target gene and a result. Over the whole deposit, 199 (0.86%) got an active call. 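Plate-scaled ratios behind the calls are not deposited; printed light signals are raw; many rows marked increased or decreased are still called inactive.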 Unmarked entries are inactive. The numbers tell different reagents against one gene apart. Names joined by + are all predicted targets of the reagent.

The first 8 entries as a preview:
target | reagent no. | siRNA reporter hit score | stable siRNA reporter change | miRNA reporter change | stable assay Renilla, run 1 (luminescence) | stable assay firefly, run 1 (luminescence)
CG18477 + CG31780 | 1 | – | – | – | 6722 | 3.54e5
Tie (Tie-like receptor tyrosine kinase) | 1 | – | – | – | 4668 | 4.34e5
Tie (Tie-like receptor tyrosine kinase) | 2 | – | – | – | 7462 | 4.38e5
Dyro (Dpt-YFP repressor by overexpression) | 1 | – | – | – | 5088 | 2.12e5
CG7099 | 1 | – | – | – | 5932 | 1.21e6
CG4119 | 1 | – | – | – | 12048 | 5.64e5
CG43867 | 1 | – | – | – | 8219 | 3.23e5
CG43867 | 2 | – | – | – | 6772 | 3.98e5

The listing, from the start:
target | reagent no. | siRNA reporter hit score | stable siRNA reporter change | miRNA reporter change | stable assay Renilla, run 1 (luminescence) | stable assay firefly, run 1 (luminescence)
CG18477 + CG31780 | 1 | – | – | – | 6722 | 3.54e5
Tie (Tie-like receptor tyrosine kinase) | 1 | – | – | – | 4668 | 4.34e5
Tie (Tie-like receptor tyrosine kinase) | 2 | – | – | – | 7462 | 4.38e5
Dyro (Dpt-YFP repressor by overexpression) | 1 | – | – | – | 5088 | 2.12e5
CG7099 | 1 | – | – | – | 5932 | 1.21e6
CG4119 | 1 | – | – | – | 12048 | 5.64e5
CG43867 | 1 | – | – | – | 8219 | 3.23e5
CG43867 | 2 | – | – | – | 6772 | 3.98e5
CG43867 | 3 | – | – | – | 7691 | 4.21e5
CG43867 | 4 | – | – | – | 6700 | 3.51e5
CG10654 | 1 | – | – | – | 7119 | 4.64e5
ppk17 (pickpocket 17) | 1 | – | – | – | 7003 | 5.01e5
TpnC41C (Troponin C at 41C) | 1 | – | – | – | 6459 | 3.70e5
Top3alpha (Topoisomerase 3alpha) | 1 | – | – | – | 6826 | 3.64e5
PIG-Wb (Phosphatidylinositol glycan anchor biosynthesis class W b) | 1 | – | – | – | 6952 | 3.58e5
Nepl4 (Neprilysin-like 4) | 1 | – | – | – | 56019 | 4.53e5
robl22E | 1 | – | – | – | 8151 | 4.09e5
Ir8a (Ionotropic receptor 8a) | 1 | – | – | – | 5423 | 4.17e5
Ir8a (Ionotropic receptor 8a) | 2 | – | – | – | 5251 | 5.37e5
CG12395 | 1 | – | – | – | 3452 | 2.90e5
Atx2 (Ataxin-2) | 1 | 3 | reporter ratio raised past the hit cutoff | – | 6659 | 2.18e5
Atx2 (Ataxin-2) | 2 | – | – | – | 2356 | 2.62e5
Srg2 + CG42826 | 1 | – | – | – | 8221 | 5.41e5
Srg2 + CG42826 | 2 | – | – | – | 6042 | 3.65e5
CG31345 | 1 | – | – | – | 6528 | 4.01e5
CG31345 | 2 | – | – | – | 6560 | 5.22e5
tsr (twinstar) | 1 | – | – | – | 5343 | 3.25e5
Nedd4 | 1 | – | – | – | 7590 | 4.55e5
Nedd4 | 2 | – | – | – | 9426 | 4.20e5
CG18011 | 1 | – | – | – | 7890 | 4.36e5
CG18011 | 2 | – | – | – | 7602 | 6.07e5
NimB2 (Nimrod B2) | 1 | – | – | – | 4455 | 4.06e5
Lip3 (Lipase 3) | 1 | – | – | – | 5635 | 3.50e5
ninaB (neither inactivation nor afterpotential B) | 1 | – | – | – | 7602 | 3.10e5
CheB98a (Chemosensory protein A 98a) | 1 | – | – | – | 6806 | 4.00e5
CG4836 | 1 | – | – | – | 7124 | 3.00e5
Nop56 | 1 | – | – | – | 6692 | 3.26e5
Mekk1 | 1 | – | – | – | 6535 | 3.24e5
Mekk1 | 2 | – | – | reporter ratio lowered past the hit cutoff | 6936 | 4.42e5
PCNA (Proliferating cell nuclear antigen) | 1 | – | – | reporter ratio lowered past the hit cutoff (active) | 6996 | 3.92e5
Ciao1 | 1 | – | – | – | 8396 | 4.61e5
Acp95EF (Accessory gland protein 95EF) | 1 | – | – | – | 7475 | 4.34e5
Brd (Bearded) | 1 | – | – | – | 6942 | 2.81e5
otk2 (off-track2) | 1 | – | – | – | 5675 | 2.89e5
Obp56c (Odorant-binding protein 56c) | 1 | – | – | – | 4452 | 3.21e5
Obp56c (Odorant-binding protein 56c) | 2 | – | – | – | 8789 | 6.31e5
mop (myopic) | 1 | – | – | – | 7263 | 2.96e5
CR11700 (retired record) | 1 | 3 (active) | reporter ratio raised past the hit cutoff | reporter ratio raised past the hit cutoff | 7530 | 2.31e5
CR11700 (retired record) | 2 | – | – | reporter ratio raised past the hit cutoff (active) | – | –
CG18418 | 1 | – | – | – | 7198 | 3.72e5
CG4270 | 1 | – | – | – | 8136 | 4.44e5
Pde1c (Phosphodiesterase 1c) | 1 | – | – | – | 7352 | 4.15e5
Pde1c (Phosphodiesterase 1c) | 2 | – | – | – | 7275 | 4.39e5
Pde1c (Phosphodiesterase 1c) | 3 | – | – | – | 7619 | 3.60e5
Pde1c (Phosphodiesterase 1c) | 4 | – | – | – | 7470 | 3.88e5
Pde1c (Phosphodiesterase 1c) | 5 | – | – | – | 6960 | 3.91e5
Pde1c (Phosphodiesterase 1c) | 6 | – | – | – | 6130 | 4.82e5
CG11109 | 1 | – | – | – | 9600 | 4.90e5
Lip2 (Lipase 2) | 1 | – | – | – | 7444 | 3.91e5
Lip2 (Lipase 2) | 2 | – | – | – | 7178 | 4.70e5
PGRP-SC1b (Peptidoglycan recognition protein SC1b) | 1 | – | – | – | 8275 | 3.70e5
Polr3A (RNA polymerase III subunit A) | 1 | – | – | – | 4732 | 4.07e5
CG7296 | 1 | – | – | – | 5915 | 5.03e5
CG7296 | 2 | – | – | – | 9402 | 5.66e5
CG13623 | 1 | – | – | – | 6510 | 2.91e5
OtopLb (Otopetrin-like b) | 1 | – | – | – | 22461 | 3.61e5
TSG101 (Tumor susceptibility gene 101) | 1 | – | – | – | 7443 | 4.75e5
CG3306 | 1 | – | – | – | 7630 | 3.42e5
CG14937 | 1 | – | – | – | 7098 | 4.32e5
Hmgcl (3-Hydroxymethyl-3-methylglutaryl-CoA lyase) | 1 | – | – | – | 7738 | 4.62e5
LManV (Lysosomal alpha-mannosidase V) | 1 | – | – | – | 7110 | 1.03e6
Alg3 (ALG3, alpha-1,3- mannosyltransferase) | 1 | – | – | – | 11062 | 1.35e6
l(1)10Bb (lethal (1) 10Bb) | 1 | – | reporter ratio raised past the hit cutoff (active) | – | 9950 | 4.90e5
alphaKap4 (alpha Karyopherin-4) | 1 | – | – | – | 6159 | 4.48e5
nac (neuronally altered carbohydrate) | 1 | – | – | – | 6914 | 4.64e5
BEAF-32 (Boundary element-associated factor of 32kD) | 1 | – | – | – | 8421 | 3.48e5
CG6602 | 1 | – | – | – | 7290 | 5.22e5
Rs1 | 1 | – | – | reporter ratio lowered past the hit cutoff | 7262 | 3.92e5
CG4286 | 1 | – | – | – | 6771 | 4.45e5
ABCB7 (ATP binding cassette subfamily B member 7) | 1 | – | – | – | 7078 | 3.59e5
Drsl6 (Drosomycin-like 6) | 1 | – | – | – | 6331 | 3.93e5
BobA | 1 | – | – | – | 6439 | 3.47e5
CG4278 | 1 | – | – | – | 55489 | 1.45e6
Atf6 | 1 | – | – | – | 4403 | 3.65e5
Atf6 | 2 | – | – | – | 6087 | 3.77e5
GstE1 (Glutathione S transferase E1) | 1 | – | – | – | 7135 | 3.99e5
CG12902 | 1 | – | – | – | 6878 | 4.25e5
frac (faulty attraction) | 1 | – | – | – | 8396 | 4.41e5
l(2)k10201 (lethal (2) k10201) | 1 | – | – | – | 7134 | 4.04e5
l(2)k10201 (lethal (2) k10201) | 2 | – | – | – | 8307 | 5.13e5
gish (gilgamesh) | 1 | – | – | – | 12404 | 7.01e5
Vajk1 | 1 | – | – | – | 8054 | 5.72e5
mRpS22 (mitochondrial ribosomal protein S22) | 1 | – | reporter ratio lowered past the hit cutoff | – | 4567 | 4.47e5
bab2 (bric a brac 2) | 1 | – | – | – | 4987 | 2.91e5
bab2 (bric a brac 2) | 2 | – | – | – | 5156 | 2.69e5
CG4757 | 1 | – | – | – | 5482 | 3.46e5
Prim2 (DNA primase subunit 2) | 1 | – | – | – | 8291 | 4.00e5
Not3 (CCR4-NOT transcription complex subunit 3) | 1 | – | – | – | 13889 | 2.15e6
CG6191 | 1 | – | – | – | 7940 | 3.96e5
CG6191 | 2 | – | – | – | 4867 | 2.63e5
CG32457 | 1 | – | – | – | 4907 | 3.36e5
CG32457 | 2 | – | – | – | 9064 | 6.64e5
CG6356 | 1 | – | – | – | 6692 | 3.38e5
CG13170 | 1 | – | – | – | 6155 | 4.02e5
CG15408 | 1 | – | – | – | 7043 | 3.42e5
mlt (mulet) | 1 | – | – | – | 7957 | 3.02e5
